# According to patent US11969417B2, “Topical formulation for use in alopecia” (TOMORROWLABS GMBH, priority 2019, dated 2024):
# Entries after “also recorded” stand apart in the source; their conditions may differ. At least one structure is not confirmed: it was looked up by name or label, or the drawing left a doubt.
# Tested on: dermal papilla cell (DP)
# Test: 3D spheroid (hanging drop) culture model of dermal papilla cells
# Format: cell-based
# Conditions: 3D spheroid culture
# Protocol: FIG. 1: 3D hanging drop culture of DPCs. […] After spheroid formation is complete, the samples are transferred into a 96 well plate for further cultivation and drug exposure. […] (A) Representative images of spheroids stained for newly synthesized cells were taken after drug exposure for 12 hours (left column) and 24 hours (right column) respectively. Scale bars: 200 μm.
compound,measurement,setting,value
Nc1cc(N2CCCCC2)nc(N)[n+]1[O-] [Minoxidil],DP cell migration (radius of migration around the spheroids),after 24 hours,significant reduction; also recorded: significantly reduced
same,DP cell proliferation (synthesis of new daughter cells),drug exposure for 12 hours and 24 hours,significantly enhanced
